Measured values as given in PubChem BioAssay AID2685 (National Center for Advancing Translational Sciences (NCATS), 2010).
The other results are listed elsewhere or left out. Further columns of the screen follow, without active or inactive calls. The list favours compounds with an active or inconclusive main result. Potencies come from curve fits of mixed quality, noted in brackets.

Experiment: qHTS Assay for Lipid Storage Modulators in Drosophila S3 Cells;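 for cell number change: cells counted by Cell Tracker Red CMTPX staining in the red channel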
Conditions: BODIPY lipid droplet fluorescence, 18-24 h; for cell number change: measured here: cell count max response, cells fed with added oleic acid
Method in brief: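 Drosophila S3 cells got compounds at several concentrations plus oleic acid (400 uM solution). Laser-scanning cytometry with 488 nm excitation read lipid droplets at 500-530 nm and cells at 575-640 nm. Percent activity was relative to 20 uM Triacsin C.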

[1] = measured here: lipid fluorescence (Fed channel) AC50, cells fed with added oleic acid
[2] = measured here: cell number channel AC50, cells fed with added oleic acid

Row | Compound | cell number change [%] | AC50 [1] | AC50 [2]
1 | Cc1nnc(SCC(=O)NCCOc2ccc(Cl)cc2)n1-c1ccccc1 | -22.8 | 16.4 µM [rising, single point] | –
2 | CCN1CCN(C(=O)c2ccc(-c3nc4ccccc4s3)s2)CC1 | 50.1 | – | 20.6 µM [rising, single point]
3 | CC(Sc1ccccc1)C(=O)NN=C1CCN(C)CC1 (stereo not given) | -18.7 | 29.1 µM [rising, single point] | –
4 | Cc1cc(C(=O)CN2C(=O)C(=O)N(C3CCCC3)C2=O)c(C)n1-c1ccc(F)cc1 | -8.14 | 0.651 µM [rising, single point] | 0.103 µM [rising, full curve, poor fit]
5 | C/C(=N\NC(=O)COc1ccc(C)cc1C(C)C)c1ccc(-n2ccnc2)cc1 | -29.4 | – | –
6 | COc1ccccc1-n1nnnc1SC(C)C(=O)NC1CCCC1 (stereo not given) | 73.1 | – | 18.4 µM [rising, single point]
7 | Cc1ccc(-c2nn(-c3ccccc3)cc2C(=O)N2CCOCC2)cc1C | -1.85 | 0.112 µM [falling, full curve, poor fit] | 0.112 µM [falling, full curve, poor fit]
8 | CCN(CC(=O)Nc1ccc2c(c1)OC(F)(F)O2)Cc1nc2ccccc2c(=O)[nH]1 | 10.7 | 4.61 µM [rising, single point] | –
9 | COc1cc(/C=N/NC(=O)c2ccc(NC(=O)C3CCCCC3)cc2)ccc1O | -51.9 | 18.4 µM [falling, partial curve] | 18.4 µM [falling, partial curve]
10 | CC(/C=C/c1ccccc1)=N\NC(=O)CNC(=O)c1ccccc1Cl | 31.9 | 1.03 µM [rising, full curve] | 0.651 µM [rising, full curve, poor fit]
11 | O=C(Nc1ccccc1-c1ccccc1)c1ccc(Cl)c([N+](=O)[O-])c1 | -0.746 | 0.00411 µM [falling, full curve, poor fit] | –
12 | COC(=O)c1ccc(Cn2cnc3c(cnn3-c3ccc(F)cc3)c2=O)o1 | 3.28 | 6.51 µM [falling, single point] | –
13 | Cc1[nH]c2ccccc2c1C(=O)C(=O)N1CCN(C)CC1 | -64.9 | – | 29.1 µM [falling, single point]
14 | CC(C)N(Cc1nc(-c2ccc(Cl)cc2)no1)C(=O)CCCN1C(=O)c2ccccc2C1=O | -32.8 | – | 2.91 µM [falling, partial curve]
15 | CC(=O)N1CCCc2ccc(NS(=O)(=O)c3ccccc3)cc21 | 15.2 | 0.731 µM [falling, single point] | –
16 | COc1cccc(/C=C/c2ccc3cccc(O)c3n2)c1OC | -11.3 | 29.1 µM [falling, single point] | –
17 | OCC1(Cc2ccccc2)CCN(Cc2ccc(-c3ccco3)cc2)CC1 | -2.9 | – | –
18 | CCOC(=O)c1cnc(SC)nc1Oc1cccc(NS(=O)(=O)c2ccc(F)cc2)c1 | -2.76 | 0.184 µM [rising, full curve, poor fit] | –
19 | Cc1cc(NS(C)(=O)=O)c(=O)n(Cc2cccc(F)c2)c1 | 5.18 | 2.91 µM [rising, single point] | –
20 | CC/C(=N\NC(=O)C1CCCC1)c1cccc(Br)c1 | -1.45 | 20.6 µM [rising, single point] | –

Given field by field: part of the list above.
Cc1[nH]c2ccccc2c1C(=O)C(=O)N1CCN(C)CC1
  cell number change [%]: -64.9; AC50 [2]: 29.1 µM [falling, single point]
CC(=O)N1CCCc2ccc(NS(=O)(=O)c3ccccc3)cc21
  cell number change [%]: 15.2; AC50 [1]: 0.731 µM [falling, single point]

Next part.

Row | Compound | cell number change [%] | AC50 [1] | AC50 [2]
21 | Cc1ccc(S(=O)(=O)Nc2cccc(S(=O)(=O)N3CCCC3)c2)cc1C | – | 6.51 µM [rising, single point] | –
22 | COc1ccc(-c2nn(-c3ccccc3)cc2/C=C2/SC(=S)N(CCCC(=O)O)C2=O)c(C)c1 | -19.6 | – | –
23 | O=C(Cc1ccc(Cl)cc1)N/N=C/c1cccc(O)c1 | – | 0.731 µM [rising, single point] | –
24 | Fc1ccc(-c2nnc(CSc3nnc(-c4ccc5c(c4)OCO5)o3)o2)cc1 | -10.2 | 0.731 µM [rising, single point] | –
25 | COc1ccc(CC(=O)N(C)CC(=O)Nc2ccccc2SC)cc1 | 22.2 | 29.1 µM [rising, single point] | –
26 | CC(NS(=O)(=O)c1ccccc1)C(=O)Nc1ccc2c(c1)OCCO2 (stereo not given) | -24.7 | 29.1 µM [falling, single point] | –
27 | COc1ccc(C)cc1NC(=O)CSc1nnc(-c2ccco2)n1N | -22.3 | – | –
28 | O=C(CN1C(=O)NC2(CCCC2)C1=O)OCCOc1cccc(Cl)c1 | 29.7 | – | –
29 | CC(OC(=O)c1ncc(Cl)c(Cl)c1Cl)C(=O)NC1CCCCC1C (stereo not given) | -2.5 | – | –
30 | CCN1CCN(C(=O)c2ccc(Sc3ccccc3Cl)c([N+](=O)[O-])c2)CC1 | 3.54 | – | –
31 | CSc1ccc(/C=C(\NC(=O)c2ccccc2)C(=O)NN)cc1 | 28.5 | 29.1 µM [rising, single point] | –
32 | COc1ccc(S(=O)(=O)N(C)C)cc1NC(=O)CSc1ncccn1 | 22.9 | 1.3 µM [rising, full curve] | 3.66 µM [rising, full curve, poor fit]
33 | CC(=O)Nc1ccc(S(=O)(=O)N2CCN(CCc3ccccc3)CC2)cc1 | -5.29 | 29.1 µM [falling, single point] | –
34 | Cc1ccc(NC(=O)CC2NCCN(Cc3ccccc3)C2=O)cc1 (stereo not given) | -24 | 4.61 µM [falling, full curve] | 4.11 µM [falling, full curve, poor fit]
35 | O=C(CCS(=O)(=O)c1ccc(F)cc1)Nc1ccc(N2CCN(Cc3ccccc3)CC2)cc1 | -6.32 | 0.092 µM [rising, full curve, poor fit] | –
36 | Cc1nc(N2CCN(c3ccccn3)CC2)c2c(C)c(C(=O)N3CCN(c4ccccc4F)CC3)sc2n1 | 97.4 | 29.1 µM [falling, single point] | 16.4 µM [rising, partial curve]
37 | Cc1ccccc1N1CCN(S(=O)(=O)CC23CCC(CC2=O)C3(C)C)CC1 (stereo not given) | -7.46 | – | –
38 | Cn1nnc(NC(=O)c2ccc(Br)o2)n1 | -4.13 | 4.11 µM [falling, partial curve, poor fit] | –
39 | CC1CC1c1ccc(/C=C(\C#N)C(=O)Nc2ccc(Cl)cc2Cl)o1 (stereo not given) | -3.81 | – | 0.103 µM [falling, full curve, poor fit]
